According to PubChem BioAssay AID504408 (Broad Institute, 2011):
Hit rate of the full screen: of about 300,000 compounds, about 5,200 (1.7%) were called active. The inconclusive results got no clear call from the source; some entries with a clear call stand among them for comparison.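 How the source made its calls: active means mean replicate activation of at least 50% with a set share of replicates each reaching 50%; inconclusive means only one of those two conditions met; inactive means mean below 50% and too few replicates reaching it.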

assay: HSF-1 activators, primary screen, NIH3T3-HGL cells, MG132 stress, luminescence, single point (AID 504408); details: NIH3T3-HGL HSF-1 luciferase reporter, MG132, 8 h; at 9 µM; active compounds read high; 100% = twice DMSO control signal;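 further: 0% = median of the neutral control wells and 100% = twice that signal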

| SMILES | activation |
| --- | --- |
| Cn1c(-c2ccc3ccccc3n2)nc2cnccc21 | inactive: 28.3% |
| CCOC(=O)c1c(C)oc2c1c1c(c3ccccc32)OCN(Cc2ccccn2)C1 | inconclusive: 61.4% |
| C=CCNc1nc(-c2ccc(Cl)cc2)cs1 | inconclusive: 52% |
| CSc1ncccc1C(=O)OCc1cccc([N+](=O)[O-])c1 | inconclusive: 54.3% |
| Cc1ccc(/C=C/C2=NN(C)C(=O)CC2)cc1 | inconclusive: 51% |
| Cc1nc(-c2ccc(C(=O)Nc3ccccc3F)cc2)cs1 | inactive: -29.6% |
| C=CCSc1nccc(-c2nn(-c3ccc(C)cc3)ccc2=O)n1 | inactive: 1.78% |
| COc1ccc(CN2CCNC(=O)C2CC(=O)NCC2CCOCC2)cc1C (stereo not given) | inconclusive: 52.3% |
| COc1cccc(NC(=O)CSc2c3c(nc4ccccc24)CCCC3)c1 | active: 62% |
| Cc1cc2nc(CCN(C(=S)NCC3CCCO3)C3CCCC3)[nH]c2cc1C (stereo not given) | inconclusive: 54% |
| Cc1ccc(C2=NNC(C(O)C(O)C(O)C(C)O)S2)cc1 (stereo not given) | active: 74.8% |
| O=C(Nc1cc(-c2ccccc2)[nH]n1)c1ccc(Cl)cc1 | inconclusive: 50.8% |
| Cc1sc(NC(=O)c2ccc(Br)s2)c(C(N)=O)c1C | active: 61.3% |
| CSc1ccc(CNC(=O)C(C)n2nc(C)c3c(C)n(-c4ccccc4)nc3c2=O)cc1 (stereo not given) | inactive: -1.44% |
| O=C(Nc1cccc(-n2cccn2)c1)C1CCCN(Cc2ccccc2F)C1 (stereo not given) | inactive: 42.5% |
| CCOC(=O)C1(Cc2cccc(OC)c2)CCCN(C(=O)c2ccc(OC)o2)C1 (stereo not given) | inconclusive: 51.5% |
| CCN(C(=O)COC(=O)c1c2c(nc3ccccc13)/C(=C/c1ccccc1)CC(C)C2)C1CCS(=O)(=O)C1 (stereo not given) | active: 83.9% |
| CCOC(=O)/C=C/COc1ccccc1[N+](=O)[O-] | inconclusive: 53.2% |
| COc1ccc(C(=O)Nc2ccc3cn[nH]c3c2)c(OC)c1 | inconclusive: 50.3% |
| O=C(Nc1ccc(N2CCOCC2)cc1)c1cccnc1 | inconclusive: 54.7% |
| COc1ccc(C2C(C#N)=C(N)N(c3ccccc3)C3=C2C(=O)CCC3)cc1Cn1cc([N+](=O)[O-])cn1 (stereo not given) | inconclusive: 51% |
| CCN(CC)S(=O)(=O)c1cc(C(=O)Nc2ccccc2[N+](=O)[O-])ccc1Cl | inconclusive: 50% |
| C/C(=N\NC(=O)c1cccs1)c1ccncc1 | inconclusive: 50.9% |
| O=C(Nc1ccc(S(=O)(=O)N2CCOCC2)cc1)c1cc([N+](=O)[O-])ccc1Cl | inconclusive: 54.6% |
| CCc1ccc2[nH]c(=O)c(CN(Cc3ccc4c(c3)OCO4)Cc3nnnn3C3CCCC3)cc2c1 | inconclusive: 51.2% |

Structural class: the entries above with a thiophene ring, fused or not

| SMILES | activation |
| --- | --- |
| Cc1sc(NC(=O)c2ccc(Br)s2)c(C(N)=O)c1C | active: 61.3% |
| C/C(=N\NC(=O)c1cccs1)c1ccncc1 | inconclusive: 50.9% |
